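Assay of Toxoplasma gondii numbers, read through their beta-galactosidase reporter with a colour substrate. Concentration: 50 µM. The record gives no direction; the compounds picked for IC50 retests had high values, so higher reads as fewer parasites. About 18,000 compounds were tested under these conditions; 0.94% (about 170) showed 50% or more at least once.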

Values are the deposited “Percent Effect”, in %.
The controls that fix the scale are not given in the record; negative values are as filed.
Compounds were drawn at random from those tested, without regard to their results.

For Nc1nc(CCC(=O)NCCc2ccccn2)cs1 the result was 1.432%.
For CC(=O)NC1CNc2ccccc2C1 (stereo unspecified) the result was -5.938%.
For CN(C)S(=O)(=O)N1CCN(CC2CCCCO2)CC1 (stereo unspecified) the result was 19%.
For Cc1cccc(C2(O)CCNCC2)c1C the result was 25.94%.
For NCc1cccc2c1OCCO2 the result was -3.989%.
For OCC1(O)CCN(Cc2cc3ccccc3s2)C1 (stereo unspecified) the result was 15.65%.
For CC(C(=O)NC1(C#N)CCCCC1)N1CCC(O)CC1 (stereo unspecified) the result was -6.455%.
For CC(N)C1CCCOC1 (stereo unspecified) the result was -7.699%.
For OCc1cnn(CC(F)(F)F)c1 the result was 8.728%.
For CCN(CC)C(=O)CSc1nnnn1C1CCOCC1 the result was -3.786%.
For CCCC(C)NC(=O)NCc1ccn(C)c1 (stereo unspecified) the result was -3.973%.
For CC1CN(c2nc(-c3ccccc3)ns2)CCS1(=O)=O (stereo unspecified) the result was -3.804%.
For Cc1cc(CSCC(=O)NCc2cccs2)on1 the result was -4.689%.
For CS(=O)(=O)Nc1ccc(Cl)c(C(=O)N2CCOCC2)c1 the result was 11.87%.
For CC(Cn1cc(Br)cn1)NCCNC(=O)C(C)(C)C (stereo unspecified) the result was -2.114%.
For CN(C)CCn1cc(NC(=O)Cc2cccs2)cn1 the result was -0.621%.
For CN1CCN(c2cnn(CCC(N)=O)c(=O)c2)CC1 the result was -2.36%.
For NC1CCCN(Cc2ccccc2)C1=O (stereo unspecified) the result was 3.99%.
For COC(=O)c1ccc(N2CCCC2)nn1 the result was 2.002%.
For OCCc1cnn(-c2ccccc2CO)c1 the result was -27.95%.
For O=C(CCc1ccccc1)NC1CCCCNC1=O (stereo unspecified) the result was -8.957%.
For CCN(CC(N)=O)Cc1ccc(N2CCCC2)nc1 the result was 4.557%.
For Cc1ncncc1C(=O)N1CCN(C)C(=O)C1C(C)C (stereo unspecified) the result was -4.525%.
For Cc1cccc(NC(=O)c2nccnc2CO)c1 the result was 8.764%.
For COc1cc(F)c(C(=O)N[C@@H]2CCNC[C@H]2O)c(F)c1 the result was 8.902%.
For NS(=O)(=O)c1ccc(F)c(C(=O)NCc2ccon2)c1 the result was 0.5962%.
For COCCN(Cc1ccncc1)C(=O)CC1CCNC1 (stereo unspecified) the result was -2.416%.
For OCC1CCCN(Cc2cccc3c2OCO3)C1 (stereo unspecified) the result was 7.583%.
For CCC=C(C)C(=O)NC1CCN(CC(=O)NC)CC1 the result was -14.45%.
For CC(=O)N1CCC(CN2CCCCC2)C1 (stereo unspecified) the result was 10.23%.
For O=C(NCc1cccc(OCC(F)F)n1)C1CCCN1 (stereo unspecified) the result was 13.76%.
For CC1CS(=O)(=O)CCN1C(=O)COCC1CC1 (stereo unspecified) the result was 17.05%.
For Cc1cc(C)n2nc(C(=O)NC(C)C3CC3)nc2n1 (stereo unspecified) the result was -1.876%.

3 of the entries, repeated:

compound,Percent Effect
CCCC(C)NC(=O)NCc1ccn(C)c1 (stereo unspecified),-3.973
OCC1CCCN(Cc2cccc3c2OCO3)C1 (stereo unspecified),7.583
Cc1cc(CSCC(=O)NCc2cccs2)on1,-4.689

Data taken from ChEMBL document CHEMBL3988442, “University of Dundee, Small-Polar-MMV Screening Library” (2021).